# Values of other authors in patent publication US4657928A, “Organic copper complexes as radioprotectants” (priority 1984, dated 1987).
# Read-outs that look alike come from different tables or passages of the source. At least one compound was matched to its structure with a doubt left.
# Conditions: cited from earlier work
smiles,measurement,setting,value
CCC(N)CC(=O)[O-].CCC(N)CC(=O)[O-].[Cu+2] (centres unmarked) [CH3 CH2 CH(NH2)CH2 CO2],"Rate, Cu(II)(L)2 + HO^.",pH 6.0,1.2-0.2
CCC(N)C(=O)[O-].CCC(N)C(=O)[O-].[Cu+2] (centres unmarked) [CH3 CH2 CH(NH2)CO2],"Rate, Cu(II)(L)2 + HO^.",pH 6.1,2.0-0.4
C[C@H](N)C(=O)[O-].C[C@H](N)C(=O)[O-].[Cu+2] [CH3 CH(NH2)CO2],"Rate, Cu(II)(L)2 + HO^.",pH 6.3,1.4-0.3
NCCC(=O)[O-].NCCC(=O)[O-].[Cu+2] [H2 NCH2 CH2 CO2],"Rate, Cu(II)(L)2 + HO^.",pH 5.8,1.2-0.2
NCCCC(=O)[O-].NCCCC(=O)[O-].[Cu+2] [NH2 CH2 CH2 CH2 CO2],"Rate, Cu(II)(L)2 + HO^.",pH 4.8,1.1-0.2
